Test results: PubChem BioAssay AID540256 (National Center for Advancing Translational Sciences (NCATS), 2011)
The whole screen tested about 300,000 compounds, of which about 3,700 (1.2%) were called active. This list was built around the results that the source calls inconclusive (neither active nor inactive); the mix of calls is not that of the screen. Calls come from the whole dose curve; tested in HEK293 cells. Potencies of inconclusive entries are doubtful fits and often do not repeat.

experiment: qHTS for Inhibitors of binding or entry into cells for Lassa Virus; conditions: Lassa virus pseudotype entry inhibition, cell reporter; series mostly up to 37.9 µM; note: nearly all actives have a fitted effect of over 50% in size
Potency is the fitted concentration of half-maximal effect.

| Structure (SMILES) | Potency |
| --- | --- |
| COc1ccc(-c2noc(CCCOc3ccccc3)n2)cc1OC | inconclusive: 25.1 µM [inhibitor, single point] |
| CN(C)c1ccc(/C=N\Nc2ccccn2)cc1 | inconclusive: 11.2 µM [inhibitor, single point] |
| CCC1CCCCN1S(=O)(=O)c1c(C)n(C)c(=O)n(C)c1=O (stereo unspecified) | inactive |
| Cn1c2ccccc2c2cc(C(=O)NNS(=O)(=O)c3ccc(F)cc3)sc21 | inconclusive: 32.6 µM [inhibitor, single point] |
| CCOC(=O)C1CCCN(C(=O)CC(c2ccccc2)c2ccccc2)C1 (stereo unspecified) | inconclusive: 11.2 µM [inhibitor, partial curve, poor fit] |
| N#CC1=C(N)Oc2cc(N)ccc2C1c1ccc(Cl)cc1 (stereo unspecified) | inconclusive: 11.2 µM [inhibitor, partial curve, poor fit] |
| COc1ccc2nc(NC3=NC(c4ccccc4)CC(=O)N3)nc(C)c2c1 (stereo unspecified) | inconclusive: 1.46 µM [inhibitor, full curve] |
| CCOc1ccccc1NC(=O)CN(c1ccc(C)cc1)S(=O)(=O)c1c(C)n[nH]c1C | inconclusive: 17.8 µM [inhibitor, single point] |
| COCCCNC(=O)c1ccc(Cn2c(=O)c3ccccc3n(CC(N)=O)c2=O)cc1 | inconclusive: 35.5 µM [inhibitor, single point] |
| Cc1cc(C)c(N=Cc2c(O)[nH]c(=O)[nH]c2=O)c(C)c1 | inconclusive: 0.562 µM [activator, full curve, poor fit] |
| Fc1ccc(-c2nc3ccccc3[nH]2)cc1 | inconclusive: 6.51 µM [activator, single point] |
| O=C(Nc1ccccc1C(=O)N1CCCCC1)c1cccc(S(=O)(=O)N2CCOCC2)c1 | inactive |
| O=C(/C=C/c1ccc(-c2ccc(F)cc2)o1)N1CCCC1 | inconclusive: 35.5 µM [inhibitor, single point] |
| COc1ccc(C(=O)Nc2ccccc2N2CCOCC2)cc1Br | inactive |
| CCOCc1nnc(NC(=O)C2CCN(C(=O)c3ccco3)CC2)s1 | inconclusive: 5.62 µM [inhibitor, single point] |
| O=P(CCCCCCCCCP(=O)(c1ccccc1)c1ccccc1)(c1ccccc1)c1ccccc1 | inconclusive: 17.8 µM [inhibitor, partial curve, poor fit] |
| O=C(COC(=O)Cn1[nH]c(=O)c2ccccc2c1=O)Nc1ccc2c(c1)OCO2 | inactive |
| CCOc1cc(/C=N/NC(=O)C2CCCC2)ccc1OC(C)C | inconclusive: 8.91 µM [inhibitor, partial curve, poor fit] |
| Cc1cc(C(=O)CCC(=O)NCC2COc3ccccc3O2)c(C)s1 (stereo unspecified) | inactive |
| Cc1ccc(CNC(=O)c2sc3nc(C)cc(C)c3c2-n2cccc2)cc1 | inactive |
| Cc1ccccc1OCC(O)Cn1c(SC(C)C)nc2c1c(=O)[nH]c(=O)n2C (stereo unspecified) | inconclusive: 29.1 µM [inhibitor, single point] |
| Cc1c(C(=O)NCCc2ccc(S(N)(=O)=O)cc2)cccc1[N+](=O)[O-] | inconclusive: 17.8 µM [activator, partial curve, poor fit] |
| COc1ccccc1C(=O)Nc1cccc(SC)c1 | inactive |
| CC(C)(C)c1cc(NCc2ccccn2)n2ncc(-c3ccccc3)c2n1 | inconclusive: 35.5 µM [inhibitor, single point] |

Reformatted with bars between the fields: 18 of the compounds above.
Structure (SMILES) | Potency
CCC1CCCCN1S(=O)(=O)c1c(C)n(C)c(=O)n(C)c1=O (stereo unspecified) | inactive
Cn1c2ccccc2c2cc(C(=O)NNS(=O)(=O)c3ccc(F)cc3)sc21 | inconclusive: 32.6 µM [inhibitor, single point]
CCOC(=O)C1CCCN(C(=O)CC(c2ccccc2)c2ccccc2)C1 (stereo unspecified) | inconclusive: 11.2 µM [inhibitor, partial curve, poor fit]
N#CC1=C(N)Oc2cc(N)ccc2C1c1ccc(Cl)cc1 (stereo unspecified) | inconclusive: 11.2 µM [inhibitor, partial curve, poor fit]
COc1ccc2nc(NC3=NC(c4ccccc4)CC(=O)N3)nc(C)c2c1 (stereo unspecified) | inconclusive: 1.46 µM [inhibitor, full curve]
CCOc1ccccc1NC(=O)CN(c1ccc(C)cc1)S(=O)(=O)c1c(C)n[nH]c1C | inconclusive: 17.8 µM [inhibitor, single point]
COCCCNC(=O)c1ccc(Cn2c(=O)c3ccccc3n(CC(N)=O)c2=O)cc1 | inconclusive: 35.5 µM [inhibitor, single point]
Cc1cc(C)c(N=Cc2c(O)[nH]c(=O)[nH]c2=O)c(C)c1 | inconclusive: 0.562 µM [activator, full curve, poor fit]
Fc1ccc(-c2nc3ccccc3[nH]2)cc1 | inconclusive: 6.51 µM [activator, single point]
O=C(Nc1ccccc1C(=O)N1CCCCC1)c1cccc(S(=O)(=O)N2CCOCC2)c1 | inactive
O=C(/C=C/c1ccc(-c2ccc(F)cc2)o1)N1CCCC1 | inconclusive: 35.5 µM [inhibitor, single point]
COc1ccc(C(=O)Nc2ccccc2N2CCOCC2)cc1Br | inactive
CCOCc1nnc(NC(=O)C2CCN(C(=O)c3ccco3)CC2)s1 | inconclusive: 5.62 µM [inhibitor, single point]
O=P(CCCCCCCCCP(=O)(c1ccccc1)c1ccccc1)(c1ccccc1)c1ccccc1 | inconclusive: 17.8 µM [inhibitor, partial curve, poor fit]
O=C(COC(=O)Cn1[nH]c(=O)c2ccccc2c1=O)Nc1ccc2c(c1)OCO2 | inactive
CCOc1cc(/C=N/NC(=O)C2CCCC2)ccc1OC(C)C | inconclusive: 8.91 µM [inhibitor, partial curve, poor fit]
Cc1cc(C(=O)CCC(=O)NCC2COc3ccccc3O2)c(C)s1 (stereo unspecified) | inactive
Cc1ccc(CNC(=O)c2sc3nc(C)cc(C)c3c2-n2cccc2)cc1 | inactive

(next part)

| Structure (SMILES) | Potency |
| --- | --- |
| CC(=O)Oc1ccc(NC(=O)C2CCCCC2)c(C(=O)O)c1 | inconclusive: 20.6 µM [activator, partial curve, poor fit] |
| COC(=O)c1ccc(C)c(NS(=O)(=O)c2ccc(OC)cc2)c1 | inconclusive: 0.282 µM [inhibitor, full curve, poor fit] |
| Cc1nc(C)c(-c2ccc(SCC(=O)Nc3cccc(F)c3)nn2)s1 | inconclusive: 35.5 µM [inhibitor, single point] |
| Cc1ccc(CN2CCCn3nc(C(=O)NCc4ccc(OC(C)C)cc4)cc3C2=O)cc1 | inconclusive: 31.6 µM [inhibitor, single point] |
| Nc1ccc2nc(SCC(=O)Nc3ccc(N4CCOCC4)c(Cl)c3)sc2c1 | inactive |
| CC(c1ccon1)N(C)C(=O)CCc1nnc(CCCCc2ccccc2)o1 (stereo unspecified) | inactive |
| Fc1ccc(CSc2nc3ncccc3[nH]2)cc1 | inconclusive: 35.5 µM [inhibitor, single point] |
| CC(=O)Nc1cccc(-c2nc3ccc(NC(C)=O)cc3[nH]2)c1 | inactive |
| COc1ccccc1N1CCN(C(=O)c2ccc(Cl)c(S(=O)(=O)N3CCCC3)c2)CC1 | inconclusive: 22.4 µM [inhibitor, single point] |
| CC(C)C1C(=O)N(Cc2cn(CCC3OCCCO3)nn2)CCS(=O)(=O)N1Cc1ccc(-c2ccncc2)cc1 (stereo unspecified) | inconclusive: 3.53 µM [activator, partial curve] |
| CCN(CC)CCNC(=O)c1cc(-c2ccc(Br)s2)nc2ccccc12 | inconclusive: 35.5 µM [inhibitor, partial curve, poor fit] |
| Cc1ccccc1OCC(=O)Nc1ccccc1-c1ccccc1NC(=O)COc1ccccc1C | inconclusive: 32.6 µM [inhibitor, single point] |
| O=C(CCCOc1ccc(Cl)cc1Cl)NCc1ccncc1 | inconclusive: 3.98 µM [inhibitor, single point] |
| C=CCOC(=O)c1ccc(-n2cncn2)nc1 | inconclusive: 6.31 µM [activator, single point] |
| CCN(CC)CCNC(=O)C1CCN(c2cc(C)nc3c(-c4ccc(Cl)cc4)c(C)nn23)CC1 | inconclusive: 35.5 µM [inhibitor, single point] |
| COc1ccc(NC(=O)c2ccccn2)cc1 | inconclusive: 3.98 µM [inhibitor, full curve, poor fit] |
| COc1ccc(-c2cn3nc4c(nc3n2)CCCC4)cc1 | inconclusive: 10 µM [inhibitor, partial curve] |
| Cc1nc(NCC2CCCO2)c2oc3ccccc3c2n1 (stereo unspecified) | inactive |
| Cc1ccc2c(c1)c1c(n2C)C(=O)CCC1 | inactive |
| Cc1ccccc1S(=O)(=O)Cc1ccc(C(=O)N2CCN(c3ccc(F)cc3)CC2)o1 | inconclusive: 29.1 µM [inhibitor, single point] |
| Nc1nsnc1C(=O)NCCO | inactive |
| CCCCn1cnc2c(sc3nc4c(cc32)CSC(C)(C)C4)c1=O | inactive |
| COc1ccc(NC(=O)c2cccnc2)c(OC)c1 | inactive |
| CS(=O)(=O)N(Cc1ccccc1)c1ccc(C(=O)N2CCN(c3cccc(Cl)c3)CC2)cc1 | inconclusive: 29.1 µM [inhibitor, single point] |

| Structure (SMILES) | Potency |
| --- | --- |
| CCOc1ccc(-c2n[nH]c(C)c2Oc2ccccc2OC)c(O)c1 | inconclusive: 14.6 µM [inhibitor, partial curve, poor fit] |
| O=c1c(C=NCCCO)c(-c2ccccc2)[nH]n1-c1nc2ccccc2s1 | inactive |
| CCOC(=O)N1CCN(C(=O)CSc2nnc(-c3c[nH]c4ccccc34)n2CCOC)CC1 | inconclusive: 7.94 µM [inhibitor, partial curve, poor fit] |
| CC1(C)Cc2c(C#N)c(N3CCN(C(=O)c4ccccc4Cl)CC3)nc(-c3ccco3)c2CS1 | inconclusive: 35.5 µM [inhibitor, single point] |
| Cc1ccc(C(=O)Nc2cnc3ccccc3c2)cc1 | active: 5.01 µM |
| COc1ccc(/C=C(\CC(=O)O)c2nc3ccccc3o2)cc1 | inactive |
| CC(=O)c1ccccc1NC(=O)CN1C(=O)CS/C1=C\c1nc(-c2ccc(C)cc2)cs1 | inactive |
| O=C(c1cccc(F)c1)N1CCC(N2CCCCCC2)CC1 | inconclusive: 35.5 µM [activator, single point] |
| Cc1nc2cc(C(F)(F)F)ccc2n1C1CCN(CC(=O)NC(C)(C)C)CC1 | inactive |
| O=C(Nc1cccc(Cl)c1Cl)c1cc2nc(-c3ccc(Cl)cc3)cc(C(F)(F)F)n2n1 | inactive |
| Cc1cc(C(=O)CN2CCC(C)CC2)c(C)n1-c1ccccc1F | inconclusive: 7.94 µM [inhibitor, partial curve, poor fit] |
| Cc1ccc(Nc2nc(N)c([N+](=O)[O-])c(NCc3ccco3)n2)cc1C | inactive |
| C=CCSc1nc2ccccc2n1S(=O)(=O)c1ccc(C)cc1 | inactive |
| CC(C)NC(=O)CSc1nc(-c2cccs2)cc(-c2ccccc2)c1C#N | inactive |
| O=c1c2ccccc2cnn1Cc1n[nH]c(=S)n1-c1ccccc1F | inconclusive: 0.891 µM [activator, full curve, poor fit] |
| CCCCCCCCCCCCCCCC[n+]1ccc(C(N)=O)cc1 | inconclusive: 20 µM [inhibitor, partial curve, poor fit] |
| CCOC(=O)c1cccc(NC(=O)c2ccc3nc(C(C)C)oc3c2)c1 | inconclusive: 5.62 µM [inhibitor, single point] |
| O=c1oc(-c2ccco2)nc2sc3c(c12)CCCC3 | inconclusive: 25.9 µM [inhibitor, single point] |
| COc1ccc2nc(NC(=O)c3nc(S(=O)(=O)Cc4ccccc4)ncc3Cl)sc2c1 | inconclusive: 7.08 µM [inhibitor, partial curve, poor fit] |
| CCOC(=O)N1CCN(Cc2c(NC(=O)c3ccco3)sc(C)c2C)CC1 | inactive |
| N#Cc1cc(C#N)c(N2CCN(c3cccc(Cl)n3)CC2)nc1N | inactive |
| Cc1nc2ccccc2c(=O)n1-c1ccccn1 | inconclusive: 25.1 µM [activator, single point] |
| O=C(c1cccc(S(=O)(=O)N2CCCCC2)c1)N1CCN(S(=O)(=O)c2ccc(F)cc2)CC1 | inactive |
